The text below walks through data of article PMC3744072.

No constants are given. Whether binding was seen depends on the method and setting. Some results given as binding are weak or reduced against the parent protein; the word gives no strength.

The test addresses matrilin-2 (mouse) (mouse (endogenous in mouse cartilage)) (UniProt O08746). The experiment in a line: non-reducing SDS-PAGE and Western blot; sequential extracts (buffer 1: 0.15 M NaCl; buffer 2: 1 M NaCl, 10 mM EDTA; buffer 3: 4 M GuHCl, 10 mM EDTA) of knee cartilage of 3-week-old mice, non-reducing 4-13.5% gels; oligomers assigned by apparent size.

B1: matrilin-2 (mouse) (protein, UniProt O08746 24-956)
chain: RERPQARFPSRGRHVRMYPQTALLESSCENKRADLVFIIDSSRSVNTYDYAKVKEFILDILQFLDIGPDVTRVGLLQYGSTVKNEFSLKTFKRKSEVERAVKRMRHLSTGTMTGLAIQYALNIAFSEAEGARPLRENVPRIIMIVTDGRPQDSVAEVAAKARNTGILIFAIGVGQVDLNTLKAIGSEPHKDHVFLVANFSQIESLTSVFQNKLCTVHMCSVLEHNCAHFCLNTPGSYICKCKQGYILSTDQKTCRIQDLCATEDHGCEQLCVNMLGSFVCQCYSGYTLAEDGKRCTAVDYCASENHGCEHECVNAESSYLCRCHEGFALNSDKKTCSKIDYCASSNHGCQHECVNAQTSALCRCLKGFMLNPDRKTCRRINYCALNKPGCEHECVNTEEGHYCRCRQGYNLDPNGKTCSRVDHCAQQDHGCEQLCLNTEESFVCQCSEGFLINDDLKTCSRADYCLLSNHGCEYSCVNTDKSFACQCPEGHVLRSDGKTCAKLDSCALGDHGCEHSCVSSEDSFVCQCFEGYILRDDGKTCRRKDVCQDVNHGCEHLCVNSGESYVCKCLEGFRLAEDGKRCRRKNVCKSTQHGCEHMCVNNGNSYLCRCSEGFVLAEDGKHCKRCTEGPIDLVFVIDGSKSLGEENFETVKHFVTGIIDSLAVSPKAARVGLLQYSTQVRTEFTLRGFSSAKEMKKAVTHMKYMGKGSMTGLALKHMFERSFTQVEGARPPSTQVPRVAIVFTDGRAQDDVSEWASKAKANGITMYAVGVGKAIEEELQEIASEPIDKHLFYAEDFSTMGEISEKLKEGICEALEDSGGRQDSAAWDLPQQAHQPTEPEPVTIKIKDLLSCSNFAVQHRFLFEEDNLSRSTQKLFHSTKSSGNPLEESQDQCKCENLILFQNVANEEVRKLTQRLEEMTQRMEALENRLKYR
B1: the binding result is “binds”.
